Results deposited as PubChem BioAssay AID1259254 (NCATS, 2017)

- Aim: 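Finding genes that stop cells copying their DNA twice in one cycle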 (primary screen)
- Cell system: human HCT116 colorectal cancer cells
- Reagents: single siRNA against human genes
- Time to read-out: 3 days
- Read-out: 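Nuclei stained with Hoechst and imaged; cell-cycle phase assigned by DNA content; G2 share scaled per plate, non-targeting siRNA 0%, GMNN siRNA 100%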
- Reading the numbers: G2 robust z-score and G2 cells, % of GMNN control: higher = more G2 cells, more excess DNA replication
- Hit rule: 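Active siRNAs have a G2 robust z of 5 or more median absolute deviations over the median, which in these data means about 38% or higher of GMNN control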
This is one part, drawn at random, of about 59,000 deposited reagents. Over the whole deposit, about 1,550 (2.6%) were called active. 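G2 share is only a proxy for re-replication; each gene was hit by three separate siRNAs, and active genes were retested.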 Reagents against one gene are numbered here. Further read-outs or replicates are left out here. Not given: the amount of reagent.

After knock-down of GZF1 (GDNF inducible zinc finger protein 1) #1 the results were G2 robust z-score 0.0817; G2 cells, % of GMNN control 3.54; inactive.
After knock-down of GZF1 (GDNF inducible zinc finger protein 1) #2, the record shows G2 robust z-score -0.586; G2 cells, % of GMNN control -1.16; inactive.
With knock-down of GZF1 (GDNF inducible zinc finger protein 1) #3, the screen gave G2 robust z-score 5.11; G2 cells, % of GMNN control 38.9; active.
RNF148 (ring finger protein 148) #1 gave G2 robust z-score 2.33; G2 cells, % of GMNN control 19.4; inactive.
Knock-down of RNF148 (ring finger protein 148) #2 came out at: G2 robust z-score -1.71; G2 cells, % of GMNN control -9.03; inactive.
For RNF148 (ring finger protein 148) #3 the deposit lists G2 robust z-score -0.269; G2 cells, % of GMNN control 1.07; inactive.

2 neighbouring records already listed, quoted:
GZF1 (GDNF inducible zinc finger protein 1) #2 — G2 robust z-score: -0.586; G2 cells, % of GMNN control: -1.16; outcome: inactive
GZF1 (GDNF inducible zinc finger protein 1) #3 — G2 robust z-score: 5.11; G2 cells, % of GMNN control: 38.9; outcome: active

More entries follow.
FDXR (ferredoxin reductase) #1 scored G2 robust z-score -0.571; G2 cells, % of GMNN control -1.05; inactive.
For FDXR (ferredoxin reductase) #2, the entry reads G2 robust z-score -0.34; G2 cells, % of GMNN control 0.573; inactive.
FDXR (ferredoxin reductase) #3 showed G2 robust z-score 1.13; G2 cells, % of GMNN control 10.9; inactive.
DENND10P1 (DENND10 pseudogene 1) #1 showed G2 robust z-score 1.26; G2 cells, % of GMNN control 11.8; inactive.
Depletion of DENND10P1 (DENND10 pseudogene 1) #2 resulted in: G2 robust z-score 0.0053; G2 cells, % of GMNN control 3; inactive.
DENND10P1 (DENND10 pseudogene 1) #3 showed G2 robust z-score 1.05; G2 cells, % of GMNN control 10.3; inactive.
Against SLC39A9 #1, the values are G2 robust z-score -0.418; G2 cells, % of GMNN control 0.0243; inactive.
Silencing of SLC39A9 #2 came out at: G2 robust z-score -0.75; G2 cells, % of GMNN control -2.31; inactive.
With knock-down of SLC39A9 #3 the results were G2 robust z-score -0.358; G2 cells, % of GMNN control 0.448; inactive.
Silencing of PCMTD2 #1 resulted in: G2 robust z-score 0.261; G2 cells, % of GMNN control 4.81; inactive.
Silencing of PCMTD2 #2 resulted in: G2 robust z-score 0.0423; G2 cells, % of GMNN control 3.26; inactive.
With knock-down of PCMTD2 #3, the screen gave G2 robust z-score 2.21; G2 cells, % of GMNN control 18.5; inactive.
